# Results of single-concentration screens

The values are deposited in ChEMBL (CHEMBL3988442, “University of Dundee, Small-Polar-MMV Screening Library” (2021)).

A: 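Phenotypic screen: M. tuberculosis growth, glucose 7H9 medium, 3 days; the read-out is not stated. Tested at 50 µM. The record gives no direction; compounds that gave an IC50 in retests scored well above the rest, so higher reads as more growth inhibition. Of about 69,000 compounds tested this way, about 760 (1.1%) reached 50% or more in at least one test.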
B: 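Phenotypic screen: M. tuberculosis growth, cholesterol and DPPC medium, 4 days; the read-out is not stated. Concentration: 50 µM. Direction is inferred from retests: higher values go with more growth inhibition. About 69,000 compounds were tested under these conditions; 0.54% (about 370) showed 50% or more at least once.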

Values are the deposited “Percent Effect”, in %.
The controls that fix the scale are not given in the record; negative values are as filed.
The compounds are a random part of those screened.
Two or more numbers in one place are separate tests of the same structure; such repeats can differ widely.

structure	A	B
Cc1oncc1C(=O)NCc1cc(=O)n2c(n1)CN(CC1CC1)CCC2.O=C(O)C(F)(F)F	-42.7	-7.441
Cn1nnnc1SCCNC(=O)C1CCN(C(=O)C2CC2)CC1	-69.96	-65.99
O=C1CN(Cc2ccc(-c3ccccc3C(=O)O)cc2)CCN1	-60.45	-26.44
CN(C)C(=O)CNS(=O)(=O)c1cc(Br)ccc1F	17.6	-9.818
COc1c(C(=O)N2CCOCC2)cnc2c1c(C)nn2C	-18.63	-13.68
O=C(c1ccccc1)N1CCN(C2CCc3ccc(F)cc32)CC1 (centres unmarked)	8.845 and 13.13	10.85
CC(Cn1cncn1)NCCN1CCc2ccccc2C1 (centres unmarked)	2.47	-10.72
CC(C)NC(=O)Nc1ccc(-c2nc3c([nH]2)CCNC3)cc1	29.88	11.94
COCCC(=O)N1CCC(NC(=O)c2cscc2C)CC1	7.029	-9.049
CC(C)n1cc2cc(NC(=O)Cn3cnnn3)ccc2n1	-15.28	-18.55
Cc1ccc(N2CC[C@H](OCC3CC3)[C@@H]2Cc2cccnc2)nn1.O=C(O)C(F)(F)F	-0.777	-10.45
COCC1CN(Cc2cnn(C)c2)Cc2nn(C)cc21.O=C(O)C(F)(F)F (centres unmarked)	3.138	-8.595
O=C(Cc1cccs1)NCC1(O)CCc2ccccc2C1 (centres unmarked)	-11.69	2.469
Cc1ccc2nc(CN(C)Cc3n[nH]c4c3CCCCC4)[nH]c2c1C	54.78	35.56
[H][C@]12CCN(C(=O)c3cc[nH]n3)CC[C@@]1([H])S(=O)(=O)N(CC)C2	26.48 and -3.859	11.88
Cc1cnc(CNC(=O)C2CCOc3ccccc3C2)cn1 (centres unmarked)	13.22	-4.583
CC(C)c1nc(CN(C)C(=O)CCc2ccc3c(c2)OCO3)cs1	-15.78	2.995
Cc1cc(C(=O)N2CCOC(c3nc(C)n[nH]3)C2)[nH]n1 (centres unmarked)	-10.95	-9.86
CC(=O)N1CCNCC1c1cccc(C(=O)N(C)C)c1 (centres unmarked)	10.65	-7.141
COc1cc(N2CCCn3cnc(COC(C)C)c3C2)ncn1.O=CO	-12.07 and -39.75	-10.8
[H][C@]12CC[C@@]3(N=C(C)N(CC)C3=O)[C@@]1([H])CN(S(=O)(=O)CC(C)C)C2	-10.62	-19.22
CN(C)CC(=O)N1Cc2ncn(C)c2C(COCC2CCOCC2)C1 (centres unmarked)	12.08	-11.61
[H][C@]12CN(c3ncc(C)cn3)C[C@@]1([H])S(=O)(=O)CC[C@@H]2C(=O)NCC(C)C	4.301 and 17.16	5.812
[H][C@@]12C[C@@H](O)CN1C[C@@H](Cc1ccccc1)N(CC1CCCCC1)C2	-8.807	14.26 and 3.538
CN(Cc1ccco1)Cc1ccccc1CNC(=O)c1csnn1	19.13 and -1.098	3.677
CO[C@H]1CN(C(=O)c2nc(-c3ccccc3)[nH]c2C)CC[C@H]1N	-6.558 and -32.67	-13.91
Cc1cnc(NC2CCc3c(ccc(=O)n3CC3CC3)C2)nc1 (centres unmarked)	-4.384	6.299
O=C(O)C(F)(F)F.O=C(O)C(F)(F)F.[H][C@@]12CCCO[C@]1([H])[C@@H](N(C)Cc1cncnc1)CN2CC1CC1	8.804	15.77
Cc1noc(C)c1CN1CCCC2(C1)CN(c1nccs1)CCO2.O=C(O)C(F)(F)F (centres unmarked)	-7.077 and -5.334	12.25
Cc1nc2cc(=O)[nH]n2c(C)c1CC(=O)NCc1ccc(C#N)cc1	2.505	2.031
Cc1nn(C)c(C)c1CNC(=O)CCn1ncc2c(Cl)cccc21	-15.64	-10.34
O=C(NCCc1noc(-c2ccccn2)n1)NCC1CCCC1	-10.05	3.992
O=C(Cn1nc(C(F)(F)F)c(Br)c1C1CC1)N1CCOCC1	33.12	-1.909
CCc1c(C)nn(CCNC(=O)Cc2csc(C)n2)c1C	-6.835	-31.14
CC(C)N1CCC(NC(=O)NCCC(=O)NCc2ccccc2)C1 (centres unmarked)	-7.553 and -16.34	-26.82
c1ccc(OCCCN2CCN(c3ccc4nncn4n3)CC2)cc1	51.24	31.51
CN(C)C(=O)c1ccc2c(c1)N(C)C(CC(=O)NCCOCCO)CO2 (centres unmarked)	-20.49	-30.24
Cc1cc(=O)[nH]c(CCNC(=O)C(c2ccc(F)cc2)N(C)C)n1 (centres unmarked)	-24.49	-16.29
Cc1ccc2c(c1)CCC21CCN(C(=O)CN(C)C)CC1.O=C(O)C(F)(F)F	12.84 and 2.037	-12.1
CCC(NC1CCN(C(=O)c2ccccc2)CC1)c1cccs1 (centres unmarked)	-20.82	6.265
O=C(NCCC(=O)N1CCCc2ccccc21)c1c(F)cccc1F	11.67	16.83
Cc1cccc(CN2CCCC2c2cncc(Nc3nncs3)n2)c1 (centres unmarked)	25.24	7.266
CNS(=O)(=O)CC1CCCN1c1ccc(Br)cn1 (centres unmarked)	-36.9	-3.584
CC(=O)N1CCN(Cc2cccs2)CC2(CC(=O)N(C)C2)C1.O=C(O)C(F)(F)F (centres unmarked)	-6.99	-2.41 and -35.88
[H][C@]12CN(C(=O)c3cccnc3)C[C@@]1([H])OCCN(S(C)(=O)=O)C2	23.81	-0.2117
CC(C)(C)c1noc(CCC(=O)N2CCN(Cc3ccc(Cl)s3)CC2)n1	-8.603	-17.63
O=C(NCCNC(=O)N1CCC(c2ccccc2)C1)C1CC1 (centres unmarked)	-4.93	18.22
CCNc1cc2c(nn1)CCN(C(=O)C(C)c1c(C)noc1C)C2 (centres unmarked)	1.993	-11.71
CN1CCC(c2cncc(Cl)n2)CC1	8.534	5.358
CC(=O)N1CCCN(Cc2csc(C)n2)c2ccccc21	12.74 and 2.922	1.574
CS(=O)(=O)CCC(=O)NC1CC(c2cccc(Cl)c2)C1 (centres unmarked)	-19.11	-30.34